These are yes or no findings as the source states them, for the method shown. For some of these results: A result given as binding can be weak or reduced; the word gives no strength. For some of these results: Sequences can lack the tags named with a protein.
Legend:
[1] = target: T1, Kap121 (full-length) (Saccharomyces cerevisiae) (UniProt P32337); test: limited proteolysis; trypsin 1:25 (w/w) on ~5 μg 53C alone or in 1:1 molar complex with Kap121; 20 mM Hepes pH 7.5, 200 mM NaCl, 3 mM DTT; room temperature; 15 to 120 min; SDS-PAGE; both purified
T1 sequence: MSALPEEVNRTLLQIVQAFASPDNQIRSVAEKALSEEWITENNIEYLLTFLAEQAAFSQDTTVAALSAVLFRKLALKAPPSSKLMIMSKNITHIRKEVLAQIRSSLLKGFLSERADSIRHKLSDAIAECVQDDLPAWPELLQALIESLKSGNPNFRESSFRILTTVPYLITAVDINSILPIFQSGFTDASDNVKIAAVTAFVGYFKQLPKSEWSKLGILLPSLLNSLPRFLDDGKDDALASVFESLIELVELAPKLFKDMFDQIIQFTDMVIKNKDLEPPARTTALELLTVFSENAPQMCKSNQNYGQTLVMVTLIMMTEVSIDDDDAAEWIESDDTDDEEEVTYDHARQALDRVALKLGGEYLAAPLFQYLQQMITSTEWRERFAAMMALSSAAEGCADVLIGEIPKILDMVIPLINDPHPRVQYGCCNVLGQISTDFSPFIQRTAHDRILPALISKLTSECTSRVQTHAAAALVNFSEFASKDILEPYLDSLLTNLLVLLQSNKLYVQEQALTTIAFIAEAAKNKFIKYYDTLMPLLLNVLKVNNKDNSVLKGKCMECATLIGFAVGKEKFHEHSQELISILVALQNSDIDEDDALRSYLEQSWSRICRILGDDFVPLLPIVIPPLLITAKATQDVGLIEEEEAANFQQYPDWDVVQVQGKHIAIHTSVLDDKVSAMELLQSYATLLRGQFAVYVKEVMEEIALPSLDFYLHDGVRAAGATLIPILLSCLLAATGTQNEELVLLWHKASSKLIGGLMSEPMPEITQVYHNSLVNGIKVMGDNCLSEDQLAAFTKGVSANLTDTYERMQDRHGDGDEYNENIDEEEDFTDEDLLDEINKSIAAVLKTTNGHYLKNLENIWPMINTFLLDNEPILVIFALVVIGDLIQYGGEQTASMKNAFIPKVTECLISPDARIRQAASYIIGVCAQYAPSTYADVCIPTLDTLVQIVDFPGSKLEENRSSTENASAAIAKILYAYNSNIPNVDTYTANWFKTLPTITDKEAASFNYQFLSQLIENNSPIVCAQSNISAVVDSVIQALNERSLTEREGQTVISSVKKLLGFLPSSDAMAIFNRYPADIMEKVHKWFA

[2] = target: T1, Kap121 (full-length) (Saccharomyces cerevisiae); test: negative-stain EM; gel filtration-purified Kap121 or its complex with 53C, 53core, or 53core and Nic96 (equimolar), 2% uranyl acetate, 2D classes and 3D maps (RELION); both purified
[3] = target: T2, Kap121 (full-length) (Saccharomyces cerevisiae, UniProt P32337 1-1089); test: ITC; single titrations, single-site 1:1 binding model where fitted; 20 mM Hepes pH 7.5, 150 mM NaCl, 0.5 mM TCEP; 15°C; Kap121 150 μM with Nup53 fragments 15 μM; both purified
T2 construct: Kap121 (karyopherin), Saccharomyces cerevisiae, full-length; source: E. coli BL21-CodonPlus(DE3)-RIL, purified (HisTrap HP, TEV cleavage, HiTrap Q, Superdex 200); not shown: SUMO-His6, N-terminal, cleaved
T2 sequence (looked up): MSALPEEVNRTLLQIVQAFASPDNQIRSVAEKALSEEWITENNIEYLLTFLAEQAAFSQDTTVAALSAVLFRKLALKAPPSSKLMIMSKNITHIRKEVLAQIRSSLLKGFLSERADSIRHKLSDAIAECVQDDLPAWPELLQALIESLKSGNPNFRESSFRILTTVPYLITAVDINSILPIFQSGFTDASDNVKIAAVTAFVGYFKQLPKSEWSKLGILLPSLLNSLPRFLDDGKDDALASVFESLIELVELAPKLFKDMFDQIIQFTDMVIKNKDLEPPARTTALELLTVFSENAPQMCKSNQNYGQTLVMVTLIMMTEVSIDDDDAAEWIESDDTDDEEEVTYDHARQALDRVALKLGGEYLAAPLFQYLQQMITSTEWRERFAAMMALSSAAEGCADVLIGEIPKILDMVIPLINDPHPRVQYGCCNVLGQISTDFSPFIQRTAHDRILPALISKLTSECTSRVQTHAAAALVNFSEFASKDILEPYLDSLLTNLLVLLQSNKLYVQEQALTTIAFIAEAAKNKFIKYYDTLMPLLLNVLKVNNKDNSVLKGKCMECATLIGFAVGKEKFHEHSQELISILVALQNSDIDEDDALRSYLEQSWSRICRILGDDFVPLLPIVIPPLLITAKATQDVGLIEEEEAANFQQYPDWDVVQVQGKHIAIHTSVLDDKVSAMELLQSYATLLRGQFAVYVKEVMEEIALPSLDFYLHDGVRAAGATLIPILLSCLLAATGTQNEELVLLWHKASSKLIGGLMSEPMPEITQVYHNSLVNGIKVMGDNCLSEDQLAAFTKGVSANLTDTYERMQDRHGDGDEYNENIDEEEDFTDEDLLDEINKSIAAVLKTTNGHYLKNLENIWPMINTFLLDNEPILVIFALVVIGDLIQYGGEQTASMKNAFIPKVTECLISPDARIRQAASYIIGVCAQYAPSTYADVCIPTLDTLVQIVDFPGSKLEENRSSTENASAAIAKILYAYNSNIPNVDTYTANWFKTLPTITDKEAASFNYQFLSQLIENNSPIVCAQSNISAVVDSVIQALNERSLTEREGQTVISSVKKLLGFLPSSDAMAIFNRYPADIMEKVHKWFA

[4] = target: GST-tagged Nup53 C-terminal IDR (53C) (Saccharomyces cerevisiae); test: pull-down; partially purified GST-tagged Nup53 fragments (~10 μg) immobilized on glutathione-Sepharose 4B; purified Nic96, 157N, 157C or Kap121 added in ~1.5 molar excess; 20 mM Hepes pH 7.5, 150 mM NaCl, 3 mM DTT; 1 hour at 4°C; SDS-PAGE, Coomassie; both purified

Molecule: Nup53 C-terminal IDR (53C) (Saccharomyces cerevisiae) (domain or fragment)
- binding [1]: binds
- binding [2]: binds

Molecule: Nup53 RRM domain (S. cerevisiae) (Saccharomyces cerevisiae) (domain or fragment)
- binding [3]: no binding (tested: Kap121 150 μM, Nup53 fragment 15 μM)

B1: Kap121 (full-length) (protein, UniProt P32337 1-1089)
chain: MSALPEEVNRTLLQIVQAFASPDNQIRSVAEKALSEEWITENNIEYLLTFLAEQAAFSQDTTVAALSAVLFRKLALKAPPSSKLMIMSKNITHIRKEVLAQIRSSLLKGFLSERADSIRHKLSDAIAECVQDDLPAWPELLQALIESLKSGNPNFRESSFRILTTVPYLITAVDINSILPIFQSGFTDASDNVKIAAVTAFVGYFKQLPKSEWSKLGILLPSLLNSLPRFLDDGKDDALASVFESLIELVELAPKLFKDMFDQIIQFTDMVIKNKDLEPPARTTALELLTVFSENAPQMCKSNQNYGQTLVMVTLIMMTEVSIDDDDAAEWIESDDTDDEEEVTYDHARQALDRVALKLGGEYLAAPLFQYLQQMITSTEWRERFAAMMALSSAAEGCADVLIGEIPKILDMVIPLINDPHPRVQYGCCNVLGQISTDFSPFIQRTAHDRILPALISKLTSECTSRVQTHAAAALVNFSEFASKDILEPYLDSLLTNLLVLLQSNKLYVQEQALTTIAFIAEAAKNKFIKYYDTLMPLLLNVLKVNNKDNSVLKGKCMECATLIGFAVGKEKFHEHSQELISILVALQNSDIDEDDALRSYLEQSWSRICRILGDDFVPLLPIVIPPLLITAKATQDVGLIEEEEAANFQQYPDWDVVQVQGKHIAIHTSVLDDKVSAMELLQSYATLLRGQFAVYVKEVMEEIALPSLDFYLHDGVRAAGATLIPILLSCLLAATGTQNEELVLLWHKASSKLIGGLMSEPMPEITQVYHNSLVNGIKVMGDNCLSEDQLAAFTKGVSANLTDTYERMQDRHGDGDEYNENIDEEEDFTDEDLLDEINKSIAAVLKTTNGHYLKNLENIWPMINTFLLDNEPILVIFALVVIGDLIQYGGEQTASMKNAFIPKVTECLISPDARIRQAASYIIGVCAQYAPSTYADVCIPTLDTLVQIVDFPGSKLEENRSSTENASAAIAKILYAYNSNIPNVDTYTANWFKTLPTITDKEAASFNYQFLSQLIENNSPIVCAQSNISAVVDSVIQALNERSLTEREGQTVISSVKKLLGFLPSSDAMAIFNRYPADIMEKVHKWFA
- binding [4]: binds
